According to paper PMC2923778 (Journal of Molecular Biology, 2010):

Target: mSPSB1ΔSB (murine)
Assay: ITC; 100 μM peptide titrated into 10 μM mSPSB protein; 22 °C; 20 mM Tris, 150 mM sodium chloride, 2.5 mM calcium chloride, pH 8.0; single binding site model; both purified

B1: [N70A]hPar-4(64–77) (peptide)
peptide: AAANELANNLPGGA
notes: human prostate apoptosis response protein-4 (hPar-4), residues 64-77, N70A; source: synthetic peptide (GenScript Corporation)
B1 was tested, and the binding was “no binding (tested: Kd > 50 μM)”.

B2: [N71A]hPar-4(64–77) (peptide)
peptide: AAANELNANLPGGA
notes: human prostate apoptosis response protein-4 (hPar-4), residues 64-77, N71A; source: synthetic peptide (GenScript Corporation)
With B2 the binding was “no binding (tested: Kd > 50 μM)”.

These are yes or no findings as the source states them, for the method shown.
